Consider one substance from PMC12123085.

The chains behind the UniProt entries cited, without tags or fusion partners.
UniProt Q9Z2L0: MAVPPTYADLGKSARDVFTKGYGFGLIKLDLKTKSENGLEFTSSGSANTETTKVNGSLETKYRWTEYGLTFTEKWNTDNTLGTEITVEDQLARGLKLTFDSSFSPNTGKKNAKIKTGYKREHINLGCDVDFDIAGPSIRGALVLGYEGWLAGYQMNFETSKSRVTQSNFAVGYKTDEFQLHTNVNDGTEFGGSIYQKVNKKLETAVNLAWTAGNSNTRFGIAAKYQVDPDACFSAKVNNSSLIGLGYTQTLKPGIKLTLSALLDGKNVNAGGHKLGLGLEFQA

Results are given in words; binding and its absence hold for the method and conditions named. Binding seen in cells or lysates may run through a third protein. Some results given as binding are weak or reduced against the parent protein; the word gives no strength.

For experiment [1], the target named is Mitochondrial calcium uptake 3 (MICU3) (rat (endogenous in rat neutrophils)). Put plainly: co-IP; IP with MICU3 antibody (3 ug, 1 mg protein, Protein A/G magnetic beads, rabbit IgG as negative control), Western blot; neutrophils from the Sham and MIRI groups. (In general: Immunoblotting shows a protein as a band on a membrane.)
For experiment [2] the target is unchanged. Put plainly: proximity ligation; fixed, permeabilised cell or tissue slices; primary antibodies against VDAC1 and MICU3, plus/minus PLA probes, fluorescence microscopy.

Regarding VDAC1 (from UniProt Q9Z2L0 1-283), the binding result in experiment [1] and in experiment [2] was “binds” throughout.
